Values from PubChem BioAssay AID743454 (Peter MacCallum Cancer Centre, 2014)
The deposit covers about 18,000 reagents; this is a random part of them. 450 of all reagents (2.5%) were called active. 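Single biological run; no consistent viability z cut-off exists, so the class columns, not z-scores, define the calls.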

Screen: 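Genes whose loss kills vorinostat-resistant colon cancer cells under vorinostat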 (primary screen)
Cells: human HCT116-VR colon cancer cells, selected for vorinostat resistance
Reagent: siRNA pool against human genes, 40 nM siRNA pool
Duration: vorinostat for 24 h, read-out about 72 h after transfection
Challenge: vorinostat at 2.5 µM final
Read-out: 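Cell viability by CellTiter-Fluor and caspase 3/7 activity by luminescence, each scaled to mock wells per plate, duplicates averaged, then robust z-scored over all plates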
Scale: viability robust z-score: higher = more viable cells than screen typical; caspase robust z-score: higher = more caspase 3/7 activity than screen typical
Hit rule: 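Hits are knock-downs in viability class RV1/RV2 or caspase class CA1/CA2, excluding ones that killed cells in the no-drug cell-count arm; hits then retested with single siRNAs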

The first 2 records, ahead of the listing:
ACLY (GeneID 47) | viability hit class: no change; caspase hit class: no change; viability robust z-score: 0.83; caspase robust z-score: -0.6; outcome: inactive
ROR1 (GeneID 4919) | viability hit class: no change; caspase hit class: no change; viability robust z-score: -0.52; caspase robust z-score: 2.13; outcome: inactive

Main list, repeating the preview:
ACLY (GeneID 47) | viability hit class: no change; caspase hit class: no change; viability robust z-score: 0.83; caspase robust z-score: -0.6; outcome: inactive
ROR1 (GeneID 4919) | viability hit class: no change; caspase hit class: no change; viability robust z-score: -0.52; caspase robust z-score: 2.13; outcome: inactive
NRARP (GeneID 441478) | viability hit class: no change; caspase hit class: no change; viability robust z-score: 0.12; caspase robust z-score: 0.92; outcome: inactive
TIMD4 (GeneID 91937) | viability hit class: no change; caspase hit class: no change; viability robust z-score: 0.55; caspase robust z-score: -0.9; outcome: inactive
CXCL16 (GeneID 58191) | viability hit class: no change; caspase hit class: no change; viability robust z-score: 0.84; caspase robust z-score: 1.07; outcome: inactive
PRKAA1 (GeneID 5562) | viability hit class: no change; caspase hit class: no change; viability robust z-score: 0.86; caspase robust z-score: -0.3; outcome: inactive
TMEM263 (GeneID 90488) | viability hit class: no change; caspase hit class: no change; viability robust z-score: -2.48; caspase robust z-score: 3.56; outcome: inactive
PLEKHG4B (GeneID 153478) | viability hit class: no change; caspase hit class: no change; viability robust z-score: -0.34; caspase robust z-score: -0.16; outcome: inactive
MIF4GD (GeneID 57409) | viability hit class: no change; caspase hit class: no change; viability robust z-score: 0.88; caspase robust z-score: -0.24; outcome: inactive
IL9 (GeneID 3578) | viability hit class: no change; caspase hit class: no change; viability robust z-score: 0.34; caspase robust z-score: 0.22; outcome: inactive
FOXJ3 (GeneID 22887) | viability hit class: no change; caspase hit class: no change; viability robust z-score: -0.29; caspase robust z-score: -0.88; outcome: inactive
ZSCAN10 (GeneID 84891) | viability hit class: no change; caspase hit class: no change; viability robust z-score: 0.93; caspase robust z-score: -0.6; outcome: inactive
